About 3,700 (7%) of roughly 53,000 sequences were called active.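 The calls were made as follows: active = gene knockdowns whose robust z-score for IL-1 alpha signal is at least 2 or at most -2, so actives lie on both sides; inactive = the rest.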 Some of the results follow.
Assay: Components of the Cytosolic LPS Sensing Pathway: Gene Identification via Genome-wide siRNA Screen;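 also: robust z of the log signal after scaling to non-targeting control siRNA wells of the plate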
Settings: RAW264.7 macrophages, IL-1a HTRF, actives lie on both sides, screened at 100 nM (by protocol), cells primed 5 h with Pam3CSK4 first
Method in brief: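 Using IL-1a HTRF as read-out, the screen measured release from RAW264.7 cells after 48h siRNA knockdown (100 nM), 5 h Pam3CSK4 priming and 24 h cytosolic LipidA. Values were expressed relative to negative-control wells as robust z-scores.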

Row | Sequence | z-score
1 | GGAACAAGAAGACUGUGAATT against Pcnt | inactive: -0.519
2 | CCAGGAAUCUAGAUAAUAGTT against BC031181 | inactive: -1.05
3 | GCUUCCUCUACAUCCUGCUTT against Kcnk15 | inactive: 0.429
4 | GCCAACCUCUUAAACACUATT against Trpm5 | inactive: 0.616
5 | CCUUAAUCACCACCUUCAUTT against Tmem245 | inactive: 0.893
6 | GCUACACCCGCAUGACAAATT against Trit1 | active: 2.43
7 | GGCAAACUGCGUGUACACUTT against Tmed4 | inactive: -1.79
8 | GGACUCAGAAGAAAUGGACTT against Osbpl6 | inactive: 0.109
9 | GAUGCAAAGUUUCUUCUUCTT against Olfr745 | inactive: 0.389
10 | GCCAGGCAACGAAACUCAGTT against Leng1 | inactive: -0.31
11 | CCAGGCAUGGAAAUCAACUTT against Ramp3 | inactive: -0.928
12 | CGAGUUGAUUAAAGAUUGUTT against E2f6 | inactive: 0.0157
13 | GGACAAGCAGUCCACUUGGTT against Ski | inactive: 0.679
14 | GGACAAUCUCUUCAGGAGUTT against Gzme | inactive: -1.16
15 | GCUUUAAUGCCAGUUUGGGTT against Olfr1391 | inactive: -0.472
16 | GGUCAUUCUGGCAUUAAUGTT against Clec4f | inactive: -0.364
17 | GUUGGUUUGUUGACCUCUUTT against Arap2 | inactive: 0.1
18 | GGAGAGUUUUAGAUGCCUCTT against Eri3 | inactive: -0.124
19 | GGUUGCUUGGAAUUAAAAGTT against Klhl1 | inactive: -1.58
20 | CGAUGGUACACUCAAUGAUTT against Hk2 | inactive: 1.89
21 | GGCCAAGAAAAUGAUUGCATT against Gpr19 | inactive: -0.445
22 | GGAGUGGUCUGACAGAAGATT against Epdr1 | inactive: 0.483
23 | CGGGAUUUGAAAGACUCAGTT against A530032D15Rik | inactive: -0.136
24 | GGUCUUUUUGGUCUUAUUUTT against Olfr293 | inactive: -1.02
25 | CCUCUUGGUUAAAUAAUGUTT against Rnf103 | inactive: -1.9
26 | GCGGUGUUUAAGCAUUGAUTT against Leprot | inactive: -0.0992
27 | GGCCAGAACCACCAAAGAATT against Zc2hc1a | inactive: -0.753
28 | CCAAGUGAAGACACGAUUGTT against Zfp809 | inactive: -1.22
29 | CCCUGACCUUGUGGUAGAATT against Aspdh | inactive: -0.165

Nothing new here: entries from further up.
Row | Sequence | z-score
2 | CCAGGAAUCUAGAUAAUAGTT against BC031181 | inactive: -1.05
3 | GCUUCCUCUACAUCCUGCUTT against Kcnk15 | inactive: 0.429
